No constants are given. Whether binding was seen depends on the method and setting. In cells and extracts the contact can be indirect.
B1: METTL14 (protein, UniProt Q3UIK4 1-456)
chain: MDSRLQEIRERQKLRRQLLAQQLGAESADSIGAVLNSKDEQREIAETRETCRASYDTSAPNSKRKCLDEGETDEDKVEEYKDELEMQQEEENLPYEEEIYKDSSTFLKGTQSLNPHNDYCQHFVDTGHRPQNFIRDVGLADRFEEYPKLRELIRLKDELIAKSNTPPMYLQADIEAFDIRELTPKFDVILLEPPLEEYYRETGITANEKCWTWDDIMKLEIDEIAAPRSFIFLWCGSGEGLDLGRVCLRKWGYRRCEDICWIKTNKNNPGKTKTLDPKAVFQRTKEHCLMGIKGTVKRSTDGDFIHANVDIDLIITEEPEIGNIEKPVEIFHIIEHFCLGRRRLHLFGRDSTIRPGWLTVGPTLTNSNYNAETYASYFSAPNSYLTGCTEEIERLRPKSPPPKSKSDRGGGAPRGGGRGGTSAGRGRERNRSNFRGERGGFRGGRGGTHRGGFTPR

Sequences of proteins named here, by UniProt entry; tags and fusion partners are left off.
UniProt Q61315: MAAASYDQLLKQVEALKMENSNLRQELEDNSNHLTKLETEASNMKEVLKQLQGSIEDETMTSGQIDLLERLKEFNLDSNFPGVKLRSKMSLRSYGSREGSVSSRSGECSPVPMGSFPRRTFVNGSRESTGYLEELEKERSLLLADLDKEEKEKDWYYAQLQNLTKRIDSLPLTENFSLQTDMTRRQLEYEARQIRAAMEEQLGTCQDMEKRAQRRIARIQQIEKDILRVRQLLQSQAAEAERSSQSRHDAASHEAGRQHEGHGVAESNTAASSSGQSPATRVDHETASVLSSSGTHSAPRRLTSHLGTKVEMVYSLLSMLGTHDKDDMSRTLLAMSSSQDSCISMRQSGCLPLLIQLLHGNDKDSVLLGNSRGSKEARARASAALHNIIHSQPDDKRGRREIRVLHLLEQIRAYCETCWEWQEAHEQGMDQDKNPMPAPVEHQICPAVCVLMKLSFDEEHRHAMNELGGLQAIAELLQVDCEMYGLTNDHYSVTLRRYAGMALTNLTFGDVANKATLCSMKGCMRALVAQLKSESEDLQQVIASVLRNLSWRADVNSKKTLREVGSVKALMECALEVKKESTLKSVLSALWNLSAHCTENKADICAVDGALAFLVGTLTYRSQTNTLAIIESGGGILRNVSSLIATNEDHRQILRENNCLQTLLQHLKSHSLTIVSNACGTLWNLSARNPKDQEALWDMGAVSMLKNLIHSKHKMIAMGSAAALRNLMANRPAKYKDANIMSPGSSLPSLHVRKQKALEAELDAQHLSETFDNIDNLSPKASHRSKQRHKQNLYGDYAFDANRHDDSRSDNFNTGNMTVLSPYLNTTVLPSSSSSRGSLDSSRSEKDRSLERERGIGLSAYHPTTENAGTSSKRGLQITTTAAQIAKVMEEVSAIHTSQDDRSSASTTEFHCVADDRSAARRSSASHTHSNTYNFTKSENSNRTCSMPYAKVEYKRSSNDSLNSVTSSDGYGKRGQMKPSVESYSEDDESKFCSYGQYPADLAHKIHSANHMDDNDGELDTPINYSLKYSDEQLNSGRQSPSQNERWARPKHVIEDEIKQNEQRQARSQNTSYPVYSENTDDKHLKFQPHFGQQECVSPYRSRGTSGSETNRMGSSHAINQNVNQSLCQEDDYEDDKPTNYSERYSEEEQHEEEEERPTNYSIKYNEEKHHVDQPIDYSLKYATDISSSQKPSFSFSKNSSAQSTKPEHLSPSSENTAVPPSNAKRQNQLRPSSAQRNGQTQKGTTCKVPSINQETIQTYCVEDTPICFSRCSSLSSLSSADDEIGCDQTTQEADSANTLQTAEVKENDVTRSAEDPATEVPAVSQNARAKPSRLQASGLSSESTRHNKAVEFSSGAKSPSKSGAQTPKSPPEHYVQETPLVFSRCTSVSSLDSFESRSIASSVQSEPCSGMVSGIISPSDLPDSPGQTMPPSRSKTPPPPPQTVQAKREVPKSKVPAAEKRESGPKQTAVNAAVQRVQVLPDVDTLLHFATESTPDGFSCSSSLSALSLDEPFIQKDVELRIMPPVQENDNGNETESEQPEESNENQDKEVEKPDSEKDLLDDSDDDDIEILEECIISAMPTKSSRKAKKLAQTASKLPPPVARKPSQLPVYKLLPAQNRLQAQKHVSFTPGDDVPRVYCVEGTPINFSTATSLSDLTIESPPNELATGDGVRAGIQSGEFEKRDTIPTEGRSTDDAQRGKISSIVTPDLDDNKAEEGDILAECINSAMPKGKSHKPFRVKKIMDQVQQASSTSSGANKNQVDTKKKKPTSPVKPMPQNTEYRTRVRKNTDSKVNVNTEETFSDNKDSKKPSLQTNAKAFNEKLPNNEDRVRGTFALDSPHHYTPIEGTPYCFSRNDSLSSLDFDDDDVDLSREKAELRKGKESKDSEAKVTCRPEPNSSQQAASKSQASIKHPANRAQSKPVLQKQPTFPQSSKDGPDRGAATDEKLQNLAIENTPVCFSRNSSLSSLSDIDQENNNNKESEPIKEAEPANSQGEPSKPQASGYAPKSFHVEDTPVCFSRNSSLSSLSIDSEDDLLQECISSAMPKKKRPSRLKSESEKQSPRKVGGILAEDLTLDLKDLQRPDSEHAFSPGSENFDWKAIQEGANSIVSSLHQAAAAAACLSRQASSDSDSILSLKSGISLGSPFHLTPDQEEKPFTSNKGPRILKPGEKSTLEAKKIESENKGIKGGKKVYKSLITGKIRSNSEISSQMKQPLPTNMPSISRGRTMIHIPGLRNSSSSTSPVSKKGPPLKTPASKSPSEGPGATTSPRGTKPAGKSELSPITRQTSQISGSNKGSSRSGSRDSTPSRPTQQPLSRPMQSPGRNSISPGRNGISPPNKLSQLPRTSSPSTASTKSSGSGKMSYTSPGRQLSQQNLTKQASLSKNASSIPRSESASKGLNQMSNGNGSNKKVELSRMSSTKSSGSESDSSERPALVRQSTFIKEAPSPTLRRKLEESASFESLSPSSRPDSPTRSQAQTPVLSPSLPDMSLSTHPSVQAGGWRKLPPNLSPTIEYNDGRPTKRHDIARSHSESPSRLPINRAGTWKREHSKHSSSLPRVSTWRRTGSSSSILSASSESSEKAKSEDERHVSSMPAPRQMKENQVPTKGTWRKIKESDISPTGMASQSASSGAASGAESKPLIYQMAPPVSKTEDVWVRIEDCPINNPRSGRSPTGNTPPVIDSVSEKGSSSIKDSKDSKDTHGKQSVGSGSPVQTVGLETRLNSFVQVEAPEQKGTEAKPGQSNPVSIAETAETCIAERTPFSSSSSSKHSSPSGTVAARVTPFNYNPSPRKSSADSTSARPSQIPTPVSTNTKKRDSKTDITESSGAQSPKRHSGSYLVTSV
UniProt Q3TSG4: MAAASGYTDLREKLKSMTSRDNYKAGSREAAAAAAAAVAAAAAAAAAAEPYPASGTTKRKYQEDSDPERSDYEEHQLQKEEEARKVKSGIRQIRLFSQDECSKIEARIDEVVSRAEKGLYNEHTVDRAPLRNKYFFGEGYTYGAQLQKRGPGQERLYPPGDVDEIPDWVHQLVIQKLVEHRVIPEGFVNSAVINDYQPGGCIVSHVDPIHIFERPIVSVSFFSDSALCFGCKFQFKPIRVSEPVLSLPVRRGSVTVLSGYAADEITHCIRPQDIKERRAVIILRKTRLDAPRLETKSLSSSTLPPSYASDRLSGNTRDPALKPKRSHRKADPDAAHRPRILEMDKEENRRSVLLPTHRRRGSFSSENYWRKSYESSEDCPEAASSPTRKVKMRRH
UniProt Q8C3P7: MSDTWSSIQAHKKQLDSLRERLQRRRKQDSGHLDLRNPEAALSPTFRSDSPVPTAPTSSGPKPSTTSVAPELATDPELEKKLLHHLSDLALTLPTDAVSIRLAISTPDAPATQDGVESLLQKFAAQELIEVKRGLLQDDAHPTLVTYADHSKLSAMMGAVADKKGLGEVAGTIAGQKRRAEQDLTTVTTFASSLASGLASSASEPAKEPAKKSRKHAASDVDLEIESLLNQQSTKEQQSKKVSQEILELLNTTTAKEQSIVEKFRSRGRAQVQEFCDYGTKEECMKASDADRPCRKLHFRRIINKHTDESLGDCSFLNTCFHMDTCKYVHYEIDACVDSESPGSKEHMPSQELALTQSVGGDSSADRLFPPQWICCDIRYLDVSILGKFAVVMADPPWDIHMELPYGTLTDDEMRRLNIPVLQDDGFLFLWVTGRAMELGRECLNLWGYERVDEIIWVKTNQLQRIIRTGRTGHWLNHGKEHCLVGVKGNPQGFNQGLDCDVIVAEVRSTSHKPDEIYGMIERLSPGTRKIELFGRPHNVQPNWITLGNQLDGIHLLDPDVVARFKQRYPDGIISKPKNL

Each molecule was assayed against adenomatous polyposis coli (APC) (UniProt Q61315) (assay: co-IP).
With ALKBH5 (from UniProt Q3TSG4 1-395) the binding was “no binding”.
For METTL3 (from UniProt Q8C3P7 1-580), the binding was “no binding”.
In the case of B1, the binding is reported as “no binding”.
